# “Also recorded” adds a separate entry of the source. At least one compound was matched to its structure with a doubt left.
# Key:
# C57BL/6 (B6) mice = test: MOG-peptide induced Experimental Autoimmune Encephalitis (EAE) model; assay type: in vivo, mouse; conditions: score 0-6, 2 mg/Kg and 0.2 mg/Kg i.p. vs PBS
# C57BL/6 mice [1] = test: Experimental obesity on 60% Kcal fat diet, weight; assay type: in vivo, mouse; conditions: high-fat diet; students t-test (<0.05)
# Male DBA/1 mice [2] = test: Collagen induced arthritis (CIA) mouse model; assay type: in vivo; conditions: for severity of arthritis (mean Severity Score/Mouse): score 0-4 per limb
# BALB/C mice = test: DSS induced acute colitis model of IBD, disease activity index (DAI); assay type: in vivo, mouse; conditions: DSS treated control group average DAI 3; score 0 to 4
# Experimental: BALB/C mice were induced with acute colitis by feeding dextran sulfate sodium (DSS) in drinking water for one week and synthetic cathelicidin was administered intrarectally daily during colitis induction.
# Mice were induced with acute colitis by being given 3% DSS (molecular weight, 36-50 kDa) according to the method described by Liu et al. (Carcinogenesis 24:1407-1413, 2003). The 3% DSS was given in their drinking water liar 7 days (from Day 0 to Day 7). Normal control mice received tap water throughout the experiment.
# Intrarectal administration of AMPs Cathelicidin mCRAMP (5 mg/Kg/day), beta-Defensin 1 (1 mg/Kg/day), beta-Defensin 3 (1 mg/Kg/day), Elafin and SLPI, CCL20 (1 mg/Kg/day), lysozyme (3 mg/Kg/day)), as well as bactericidal/permeability increasing protein (1 mg/Kg/day). The mice were divided into two groups of 10, one receiving ordinary tap water and the disease group with DSS treatment. The peptides were intrarectally administrated once daily for 10 consecutive days beginning 3 dayd before DSS treatment. […]
# In all tested animals, body weight, stool consistency, and presence of gross bleeding were recorded. Disease activity index (DAI) was calculated according to the method described by Cooper et al. (Lab Invest 69:238-249, 1993.). In brief, body weight loss, stool consistency, and bleeding were scored from 0 to 4, and DAI is the combined score divided by 3. […]
# C57BL/6 mice [3] = test: LPS-induced change in glucose levels in mice on high fat diet (insulin resistance model); assay type: in vivo, mouse
# [4] = test system: ankle joints of mice paws; test: Histology (H&E, TRAP) of paws from the CIA experiment: bone resorption, degradation, osteoclasts; assay type: in vivo, mouse; conditions: for bone erosion, resorption, degradation or deformation: CIA paws, treatment vs control, H&E and TRAP staining
# Male DBA/1 mice [5] = test: Weight gain on normal non-high-fat diet for 21 days; assay type: in vivo, mouse
# [6] = mCRAMP i.p. 3 times per week vs saline control
smiles,measurement,setting,value
CC[C@H](C)[C@H](NC(=O)[C@H](CCCCN)NC(=O)[C@H](CCC(=O)O)NC(=O)[C@H](CCCCN)NC(=O)[C@H](CO)NC(=O)[C@H](CCCCN)NC(=O)[C@H](CCCNC(=N)N)NC(=O)[C@H](Cc1ccccc1)NC(=O)[C@H](Cc1ccccc1)NC(=O)[C@H](CC(=O)O)NC(=O)CNC(=O)[C@H](CC(C)C)NC(=O)[C@@H](N)CC(C)C)C(=O)NCC(=O)N[C@@H](CCCCN)C(=O)N[C@@H](CCC(=O)O)C(=O)N[C@@H](Cc1ccccc1)C(=O)N[C@@H](CCCCN)C(=O)N[C@@H](CCCNC(=N)N)C(=O)N[C@H](C(=O)N[C@H](C(=O)N[C@@H](CCC(N)=O)C(=O)N[C@@H](CCCNC(=N)N)C(=O)N[C@H](C(=O)N[C@@H](CCCCN)C(=O)N[C@@H](CC(=O)O)C(=O)N[C@@H](Cc1ccccc1)C(=O)N[C@@H](CC(C)C)C(=O)N[C@@H](CCCNC(=N)N)C(=O)N[C@@H](CC(N)=O)C(=O)N[C@@H](CC(C)C)C(=O)N[C@H](C(=O)N1CCC[C@H]1C(=O)N[C@@H](CCCNC(=N)N)C(=O)N[C@H](C(=O)N[C@@H](CCC(=O)O)C(=O)N[C@@H](CO)C(=O)O)[C@@H](C)O)C(C)C)[C@@H](C)CC)C(C)C)[C@@H](C)CC [mCRAMP],"EAE severity (average clinical score, average score at first peak of disease)",C57BL/6 (B6) mice; listed as Cathelicidin,clear significant difference in average clinical score
same,"EAE severity (average clinical score, average score at first peak of disease)",C57BL/6 (B6) mice; listed as Cathelicidin peptide,lowered EAE severity
same,weights of the two groups on day 50,C57BL/6 mice [1],statistically significant difference between the two groups
same,incidence of arthritis,Male DBA/1 mice [2]; [6],somewhat lower than the control group
same,rate of arthritis development,Male DBA/1 mice [2]; [6],appeared to be delayed
same,incidence of arthritis,"Male DBA/1 mice [2]; mCRAMP i.p. 3 times per week vs saline control, listed as Cathelicidin",significantly lowers incidence rate
same,"progression of arthritis (mean severity score from day one since incidence until day 19 since incidence), treatment vs control","Male DBA/1 mice [2]; mCRAMP i.p. 3 times per week, 0.8 mg/kg from day 7, t-test p=0.0037",very significant difference
same,severity of arthritis (mean Severity Score/Mouse),Male DBA/1 mice [2]; vs control,differences between the two groups were clearly observed
same,severity of arthritis (mean Severity Score/Mouse),"Male DBA/1 mice [2]; vs control, listed as Cathelicidin",significantly lowers
same,Mean weight gain (day 21 to 46),"Male DBA/1 mice [2]; treatment group, control 2.1%, Mann-Witney P<0.05",5.4%
same,number of arthritic paws (limbs) per mouse,"Male DBA/1 mice [2]; vs control, 95% confidence limit",significantly lower than control; also recorded: generally lower
same,average DAI (disease activity index),BALB/C mice,1
same,insulin resistance developed over four weeks of high fat diet,C57BL/6 mice [3]; mCRAMP 0.4 mg/Kg i.p. three times a week,protected the treatment group mice from insulin resistance
same,"average glucose levels two hours following LPS administration, relative to initial level","C57BL/6 mice [3]; mCRAMP 0.4 mg/Kg i.p. three times a week, four weeks 60% Kcal fat diet, LPS 0.2 mg/kg, control rose by 5.31%",90.05%
same,"rate of change in glucose levels, treatment vs control","C57BL/6 mice [3]; two hours after LPS, students t-test<0.05",significant difference
same,"bone erosion, resorption, degradation or deformation",[4]; listed as Cathelicidin,inhibits bone erosion and deformation
same,"bone erosion, resorption, degradation or deformation",[4]; listed as cathelicidin,less degradation and less resorption; also recorded: reduced bone resorption
same,osteoclasts (TRAP staining),[4]; inflamed treatment group vs non-inflamed control,less osteoclast than the non-inflamed control
same,weight gain,"Male DBA/1 mice [5]; non-high-fat diet, mCRAMP 1.5, 1.0 then 0.8 mg/kg i.p. 3 times per week",0.0488 gm/day
same,average weight gain,"Male DBA/1 mice [5]; normal no-high fat diet, control 0.0536, FIG. 13 legend",0.0488 gms per day
